Reference: patent publication US20190024087
For some assays here: Protein sequences can lack the tags named with them. For some assays here: For at least one entry, the source does not settle the construct or the ends of the probe.

The chains behind the UniProt entries cited, without tags or fusion partners. Residues count along the entry.
UniProt O14793, 268-375: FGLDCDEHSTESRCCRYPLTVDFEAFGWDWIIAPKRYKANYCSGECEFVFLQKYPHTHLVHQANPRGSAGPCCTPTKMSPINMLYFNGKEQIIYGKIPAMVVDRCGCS

What was measured:
[1] = biological target: Myostatin (GDF8, mature human) (Homo sapiens) (UniProt O14793); experiment: filter binding; details: NapdU at all P (n) positions, 0.1 uM Z-block, purified recombinant protein, single-stranded DNA
[2] = biological target: T1, GDF11 (mature human) (Homo sapiens) (UniProt O95390); experiment: filter binding; details: NapdU at all P (n) positions; 0.1 uM Z-block; purified recombinant protein; single-stranded DNA; variant of 12060-28_3
T1 sequence: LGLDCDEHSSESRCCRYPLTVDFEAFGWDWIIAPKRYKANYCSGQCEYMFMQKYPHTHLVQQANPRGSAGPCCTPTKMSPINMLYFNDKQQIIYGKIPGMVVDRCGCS

[3] = biological target: T1, GDF11 (mature human) (Homo sapiens); experiment: binding assay; details: NapdU at all P (n) positions, purified recombinant protein, single-stranded DNA; for Kd: method not stated

| Sequence | Kd ([1]; variant of 12060-28_3) [nM] | Kd [1] [nM] | other results |
| --- | --- | --- | --- |
| CCCTGCGCCTTCGGACTTGATTTAAGTTTAGCCGCTTGCTCACATCACAA [12060-28_38] | > 320 |  |  |
| CCCTGCGCCTTCGGACTTGCTTCAAGTTTAGCCGCTTGCTCACATCACAA [12060-209_3] | > 320 |  | Kd [2]: > 320 nM |
| CCCTGCGCCTTCGGACTTGCTTTAAGTTTAGCCGCTCGCTCACATCACAA [12060-204_3] | > 320 |  |  |
| CCCTGCGCCTTCGGACTTGCTTTAAGTTTAGCCGCTTGCTCACAACACAA [12060-300_3] | > 320 |  |  |
| CCCTGCGCCTTCGGACTTGCTTTAAGTTTAGCCGCTTGCTCACATCACAA [12060-28_3] |  | > 320 |  |
| CCCTGCGCCTTCGGACTTGCTTTAAGTTTAGCCGCTTGCTCACGTCACAA [12060-130_3] | > 320 |  |  |
| CCCTGCGCCTTCGGACTTGCTTTAAGTTTAGCCGCTTGCTTACATCACAA [12060-116_3] | > 320 |  |  |
| CCCTGCGCCTTCGGACTTGCTTTAAGTTTAGCCGCTTGTTCACATCACAA [12060-4_3] | > 320 |  |  |
| CCCTGCGCCTTCGGACTTGCTTTACGTTTAGCCGCTTGCTCACATCACAA [12060-238_3] | > 320 |  |  |
| CCCTGCGCCTTCGGACTTGCTTTAGGTTTAGCCGCTTGCTCACATCACAA [12060-28_40] | > 320 |  |  |
| CCCTGCGCCTTCGGACTTGGTTTAAGTTTAGCCGCTTGCTCACATCACAA [12060-28_39] | > 320 |  |  |
| CCCTGGTTGACAAGGTACTGGACTTGATTTACGTTTAGCCTCAAGCACAA [12058-386_3] |  | > 320 |  |
| CCCTGTGAGACTTGATTTACGTTTAGCTGCTAACATGGGGAACCACACAA [12060-16_3] |  | > 320 |  |
| CCCTGTGCCTTCGGACTTGCTTTAAGTTTAGCCGCTTGCTCACATCACAA [12060-32_3] | > 320 |  |  |
| CTGTGAACTTGATTTAAGTTTAGGCACATACACCACTCCGGACGA [16139-198_3] |  | > 320 |  |
| CTGTGACCTTCACCCGTGACTTGGTTTACGTTTAGCGGGTAGGTCACAA [16139-178_3] |  | > 320 |  |

| Sequence | Kd ([1]; variant of 12060-28_3) [nM] | Kd [1] [nM] | other results |
| --- | --- | --- | --- |
| CTGTGACTAATGTGACCGGAGACTTGCTTTACGTTTAGCGACCTGCACAA [16139-12_3] |  | > 320 |  |
| CTGTGAGTGTACCTCGCGCTTGATTTACGTTTAGGCGAGGCAGGCCACAA [16139-30_3] |  | > 320 |  |
| CTGTGCGTACTGACTTGATTTACGTTTTAGCGATGCATGCTTGAGCCACAA [16139-122_3] |  | > 320 |  |
| CTGTGCTAAGACTGCGGACTTGATTTAGGTTTAGCCGCAAGAAGTCACAA [16139-37_3] |  | > 320 |  |
| CTGTGGACTGAGTTGGATGGGACTTGATTTAAGTTTAGCCCGCAACACAA [16139-3_3] |  | > 320 |  |
| CTGTGGTTAACGACGACTTGATTTACGTTTAGCGGCACCTTACACCACAA [16139-19_3] |  | > 320 |  |
| GACTTGCTTTAAGTTTAGCC [12060-28_37 (20-mer)] |  |  | binding result ([3]; 20-mer binds, less well than 21-mer, variant of 12060-28_3): binds |
| GCCGCCTTCGGTACTTGACTTTAAGTTTGTAGGCCAGCGTTGCTCACAT [Table 8 clone SEQ 64] |  |  | Kd ([3]; sequence shown without flanks): > 320 nM |
| GCCGCCTTTCGGACTTGACTTTAAGTTTACGCTCGACTTGACTCCATCAT [Table 8 clone SEQ 61] |  |  | Kd ([3]; sequence shown without flanks): > 320 nM |
| GCGCCTTCGGACTTGCTTAAAGTTTAGCCGCTTGTT [Table 8 clone SEQ 69] |  |  | Kd ([3]; sequence shown without flanks): > 320 nM |
| GGACTTGCTTTAAGTTTAGCC [12060-28_36 (21-mer)] |  |  | Kd ([3]; truncation, variant of 12060-28_3): 0.443 nM |
| GTCGCCTCGGACTGCTTTAAGTTAGCCGTCCTACTACCA [Table 8 clone SEQ 60] |  |  | Kd ([3]; sequence shown without flanks): > 320 nM |
| GTCGCTACGGACTTGATTTAACGTTTTAGCCGCTTACATGGGAACCA [Table 8 clone SEQ 67] |  |  | Kd ([3]; sequence shown without flanks): > 320 nM |
| GTGCCTTCCGGACTTGCCTTTAACGTTTAGCCTAGCTTGCTCACAT [Table 8 clone SEQ 63] |  |  | Kd ([3]; sequence shown without flanks): > 320 nM |
| GTGCTAGGACTTGACTTTAACGTTTAGCTGCTTACATGGAACTC [Table 8 clone SEQ 72] |  |  | Kd ([3]; sequence shown without flanks): > 320 nM |
